Measurements reported in paper PMC8973879.
No constants are given. Whether binding was seen depends on the method and setting. In cells and extracts the contact can be indirect. Some entries that bind do so weakly or less than the wild type. For some assays here: Tags and fused reporters may be left off the sequences shown. One block for each binder: values may come before it.

Assays:
[1] = target: T1, STIL (SCL/TAL1-interrupting locus), endogenous (human (endogenous in CL1-5)) (UniProt Q15468); test: co-IP; endogenous proteins, CL1-5 cells lysed in RIPA buffer; immunoprecipitation with anti-STIL or anti-FOXM1 antibody (4 °C, 1 h), protein A/G agarose overnight at 4 °C; Western blotting
T1 sequence: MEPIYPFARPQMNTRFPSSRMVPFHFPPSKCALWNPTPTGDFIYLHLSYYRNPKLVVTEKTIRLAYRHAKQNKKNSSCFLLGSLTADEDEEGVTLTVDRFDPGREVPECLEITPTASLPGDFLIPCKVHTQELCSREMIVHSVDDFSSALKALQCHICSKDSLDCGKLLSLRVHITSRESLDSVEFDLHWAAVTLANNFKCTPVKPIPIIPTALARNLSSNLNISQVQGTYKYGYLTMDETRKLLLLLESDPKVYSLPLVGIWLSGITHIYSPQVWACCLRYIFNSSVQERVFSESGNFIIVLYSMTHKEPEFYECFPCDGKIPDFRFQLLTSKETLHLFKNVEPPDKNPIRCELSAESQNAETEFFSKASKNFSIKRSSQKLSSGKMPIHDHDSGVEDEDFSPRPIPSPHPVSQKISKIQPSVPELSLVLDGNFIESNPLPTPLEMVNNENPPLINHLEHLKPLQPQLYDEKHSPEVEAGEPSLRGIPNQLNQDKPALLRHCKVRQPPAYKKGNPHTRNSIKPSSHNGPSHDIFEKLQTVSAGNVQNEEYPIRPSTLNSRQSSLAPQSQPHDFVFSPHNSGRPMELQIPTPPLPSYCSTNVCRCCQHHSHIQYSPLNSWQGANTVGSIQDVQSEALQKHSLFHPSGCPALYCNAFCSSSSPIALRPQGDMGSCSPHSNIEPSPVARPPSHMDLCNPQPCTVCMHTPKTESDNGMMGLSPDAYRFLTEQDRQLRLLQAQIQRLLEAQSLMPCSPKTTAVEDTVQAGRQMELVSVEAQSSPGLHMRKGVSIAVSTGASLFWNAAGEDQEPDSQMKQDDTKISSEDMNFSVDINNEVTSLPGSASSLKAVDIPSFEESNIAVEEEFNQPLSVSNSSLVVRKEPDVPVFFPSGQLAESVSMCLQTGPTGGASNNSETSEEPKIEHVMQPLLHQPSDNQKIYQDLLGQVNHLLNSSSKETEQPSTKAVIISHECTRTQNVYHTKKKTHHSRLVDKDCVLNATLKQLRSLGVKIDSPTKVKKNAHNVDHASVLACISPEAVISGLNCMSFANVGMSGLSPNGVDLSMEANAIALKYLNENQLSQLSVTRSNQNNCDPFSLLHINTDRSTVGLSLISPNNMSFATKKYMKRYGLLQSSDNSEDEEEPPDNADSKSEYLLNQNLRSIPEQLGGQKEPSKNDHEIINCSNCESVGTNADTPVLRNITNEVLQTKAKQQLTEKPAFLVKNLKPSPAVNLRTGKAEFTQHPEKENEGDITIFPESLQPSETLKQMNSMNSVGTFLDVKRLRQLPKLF

[2] = target: T1, STIL (SCL/TAL1-interrupting locus), endogenous (human (endogenous in CL1-5)); test: co-IP; co-IP from cytoplasmic and nuclear fractions (Additional file 2: Fig. S6e); cells and antibodies not shown
[3] = target: T2, FOXM1 (Forkhead box protein M1), endogenous (human (endogenous in CL1-5)) (UniProt Q08050); test: co-IP; endogenous proteins, CL1-5 cells lysed in RIPA buffer; immunoprecipitation with anti-STIL or anti-FOXM1 antibody (4 °C, 1 h), protein A/G agarose overnight at 4 °C; Western blotting
T2 sequence: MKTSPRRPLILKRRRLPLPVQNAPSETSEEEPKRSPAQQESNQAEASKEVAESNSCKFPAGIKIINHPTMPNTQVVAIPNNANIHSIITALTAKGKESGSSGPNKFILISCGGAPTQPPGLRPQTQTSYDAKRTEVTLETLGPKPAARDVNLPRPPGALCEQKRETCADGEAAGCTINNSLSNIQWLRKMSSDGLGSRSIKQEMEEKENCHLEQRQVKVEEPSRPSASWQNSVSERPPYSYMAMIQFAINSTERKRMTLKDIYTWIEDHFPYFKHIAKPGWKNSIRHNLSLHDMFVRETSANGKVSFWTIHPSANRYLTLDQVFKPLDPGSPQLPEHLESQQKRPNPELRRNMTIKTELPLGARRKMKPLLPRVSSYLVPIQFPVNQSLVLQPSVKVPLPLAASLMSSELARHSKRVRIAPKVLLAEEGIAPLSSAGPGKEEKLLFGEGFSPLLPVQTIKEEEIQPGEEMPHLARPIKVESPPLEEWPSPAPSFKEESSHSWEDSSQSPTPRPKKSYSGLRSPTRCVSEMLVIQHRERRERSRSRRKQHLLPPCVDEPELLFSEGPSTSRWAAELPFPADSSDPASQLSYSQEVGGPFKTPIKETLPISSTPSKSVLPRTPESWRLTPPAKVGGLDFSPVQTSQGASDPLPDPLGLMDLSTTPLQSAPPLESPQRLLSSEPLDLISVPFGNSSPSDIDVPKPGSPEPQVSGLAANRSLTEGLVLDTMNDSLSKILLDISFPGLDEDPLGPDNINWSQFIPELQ

HA-FOXM1 = target: T3, HA-FOXM1 (UniProt Q08050); test: co-IP; HEK293T cells transiently co-transfected with HA-FOXM1 and full-length or truncated GFP-STIL; immunoprecipitation with anti-HA antibody; Western blotting
T3 sequence: T2 sequence

- binding [1]: binds
- binding [2]: binds
B1: FOXM1 (Forkhead box protein M1), endogenous (protein, UniProt Q08050 1-763)
chain: T2 sequence

- binding [3]: binds
B2: STIL (SCL/TAL1-interrupting locus), endogenous (protein, UniProt Q15468 1-1287)
chain: T1 sequence

- binding (HA-FOXM1): binds
B3: GFP-STIL (a.a. 437-1288) (domain or fragment, UniProt Q15468-2 437-1288)
chain: ESNPLPTPLEMVNNENPPLINHLEHLKPLQPQLYDEKHSPEVEAGEPSLRGIPNQLNQDKPALLRHCKVRQPPAYKKGNPHTRNSIKPSSHNGPSHDIFEKLQTVSAGNVQNEEYPIRPSTLNSRQSSLAPQSQPHDFVFSPHNSGRPMELQIPTPPLPSYCSTNVCRCCQHHSHIQYSPLNSWQGANTVGSIQDVQSEALQKHSLFHPSGCPALYCNAFCSSSSPIALRPQGDMGSCSPHSNIEPSPVARPPSHMDLCNPQPCTVCMHTPKTESDNGMMGLSPDAYRFLTEQDRQLRLLQAQIQRLLEAQSLMPCSPKTTAVEDTVQAGRQMELVSVEAQSSPGLHMRKGVSIAVSTGASLFWNAAGEDQEPDSQMKQDDTKISSEDMNFSVDINNEVTSLPGSASSLKAVDIPSFEESNIAVEEEFNQPLSVSNSSSLVVRKEPDVPVFFPSGQLAESVSMCLQTGPTGGASNNSETSEEPKIEHVMQPLLHQPSDNQKIYQDLLGQVNHLLNSSSKETEQPSTKAVIISHECTRTQNVYHTKKKTHHSRLVDKDCVLNATLKQLRSLGVKIDSPTKVKKNAHNVDHASVLACISPEAVISGLNCMSFANVGMSGLSPNGVDLSMEANAIALKYLNENQLSQLSVTRSNQNNCDPFSLLHINTDRSTVGLSLISPNNMSFATKKYMKRYGLLQSSDNSEDEEEPPDNADSKSEYLLNQNLRSIPEQLGGQKEPSKNDHEIINCSNCESVGTNADTPVLRNITNEVLQTKAKQQLTEKPAFLVKNLKPSPAVNLRTGKAEFTQHPEKENEGDITIFPESLQPSETLKQMNSMNSVGTFLDVKRLRQLPKLF

- binding (HA-FOXM1): binds
B4: GFP-STIL (a.a. 1-1061) (domain or fragment, UniProt Q15468-2 1-1061)
chain: MEPIYPFARPQMNTRFPSSRMVPFHFPPSKCALWNPTPTGDFIYLHLSYYRNPKLVVTEKTIRLAYRHAKQNKKNSSCFLLGSLTADEDEEGVTLTVDRFDPGREVPECLEITPTASLPGDFLIPCKVHTQELCSREMIVHSVDDFSSALKALQCHICSKDSLDCGKLLSLRVHITSRESLDSVEFDLHWAAVTLANNFKCTPVKPIPIIPTALARNLSSNLNISQVQGTYKYGYLTMDETRKLLLLLESDPKVYSLPLVGIWLSGITHIYSPQVWACCLRYIFNSSVQERVFSESGNFIIVLYSMTHKEPEFYECFPCDGKIPDFRFQLLTSKETLHLFKNVEPPDKNPIRCELSAESQNAETEFFSKASKNFSIKRSSQKLSSGKMPIHDHDSGVEDEDFSPRPIPSPHPVSQKISKIQPSVPELSLVLDGNFIESNPLPTPLEMVNNENPPLINHLEHLKPLQPQLYDEKHSPEVEAGEPSLRGIPNQLNQDKPALLRHCKVRQPPAYKKGNPHTRNSIKPSSHNGPSHDIFEKLQTVSAGNVQNEEYPIRPSTLNSRQSSLAPQSQPHDFVFSPHNSGRPMELQIPTPPLPSYCSTNVCRCCQHHSHIQYSPLNSWQGANTVGSIQDVQSEALQKHSLFHPSGCPALYCNAFCSSSSPIALRPQGDMGSCSPHSNIEPSPVARPPSHMDLCNPQPCTVCMHTPKTESDNGMMGLSPDAYRFLTEQDRQLRLLQAQIQRLLEAQSLMPCSPKTTAVEDTVQAGRQMELVSVEAQSSPGLHMRKGVSIAVSTGASLFWNAAGEDQEPDSQMKQDDTKISSEDMNFSVDINNEVTSLPGSASSLKAVDIPSFEESNIAVEEEFNQPLSVSNSSSLVVRKEPDVPVFFPSGQLAESVSMCLQTGPTGGASNNSETSEEPKIEHVMQPLLHQPSDNQKIYQDLLGQVNHLLNSSSKETEQPSTKAVIISHECTRTQNVYHTKKKTHHSRLVDKDCVLNATLKQLRSLGVKIDSPTKVKKNAHNVDHASVLACISPEAVISGLNCMSFANVGMSGLSPNGVDL
